PubChem BioAssay AID540276 (National Center for Advancing Translational Sciences (NCATS), 2011)
Where “and” joins values, the source holds several entries; their conditions need not be identical. Identical values can stand only once. The whole screen tested about 300,000 compounds, of which about 5,400 (1.8%) were called active. Inconclusive means that the source gave no clear call. Such entries were picked first, then a sample of the others. Calls come from the whole dose curve; tested in HEK293 cells. Where the call is inconclusive, the potency comes from a doubtful curve fit.
Potency is the fitted concentration of half-maximal effect.

Experiment: qHTS for inhibitors of binding or entry into cells for Marburg Virus
Conditions: Marburg virus pseudotyped entry inhibition, cell reporter; series mostly up to 37.8 µM
With `COCC(=O)Nc1cc(Cl)ccc1C` the Potency was “inactive”.
With `CCC(=O)c1cn(CC(=O)Nc2ccc(C)cc2)c2ccccc12` the Potency was “inactive”.
With `Cc1c(C#N)c(N)nc2c3c(sc12)NC(=O)CC3c1ccc(Cl)cc1` (stereo unspecified) the Potency was inconclusive: 3.55 µM [inhibitor, partial curve, poor fit].
With `COC(=O)[C@@H]1CC[C@H](C)[C@@H](c2ccc(C)cc2)N1C(=O)c1ccc(C=NOC[C@H]2O[C@H](c3ccccc3)C=C[C@H]2Oc2ccc(OC)cc2)cc1` the Potency was “inactive”.
In the case of `Cc1ccc2oc(C(=O)N(Cc3ccc(N(C)C)cc3)C3CCS(=O)(=O)C3)c(C)c2c1` (stereo unspecified), the Potency is reported as inconclusive: 35.5 µM [inhibitor, single point].
In the case of `COc1ccc(NC(=O)c2cc(CN3C(=O)c4ccccc4C3=O)ccc2OC)cn1`, the Potency is reported as inconclusive: 12.6 µM [inhibitor, partial curve, poor fit].
For `CCCCn1c(CNC(=O)C23CC4CC(CC(C4)C2)C3)nnc1SCC(=O)Nc1ccccc1`, the Potency was inconclusive: 35.5 µM [inhibitor, single point].
In the case of `CN(C)N=Nc1nc2c([nH]1)c(=O)n(C)c(=O)n2C`, the Potency is reported as “inactive”.
In the case of `CCN(CC)CCCNC(=O)CCc1c(C)n(CC)c2cc(-c3ccccc3OC)nn2c1=O`, the Potency is reported as inconclusive: 1 µM [inhibitor, full curve].
With `Brc1c(-c2ccc3c(c2)OCO3)nc2ncccn12` the Potency was “inactive”.
In the case of `Cn1c(SCc2ccccc2F)nc2ccccc2c1=O`, the Potency is reported as inconclusive: 35.5 µM [inhibitor, single point].
With `CC1CCN(Cc2nnc(-c3cccc(Br)c3)o2)CC1` the Potency was “inactive”.
In the case of `O=C(CCc1nc2cccnc2n1Cc1ccccc1)NCc1cccc(Cl)c1`, the Potency is reported as inconclusive: 15.8 µM [inhibitor, single point].
For `COc1ccccc1C(=O)NC(C)C(c1cccs1)N1CCN(C)CC1` (stereo unspecified), the Potency was “inactive”.
In the case of `CCc1ccc(OCC(=O)N2CCN(CC(=O)Nc3ccccc3Cl)CC2)cc1`, the Potency is reported as inconclusive: 5.62 µM [activator, single point].
For `Cc1csc(NC(=O)c2cc3c(C)nn(Cc4ccccc4Cl)c3s2)n1`, the Potency was inconclusive: 1.58 µM [activator, partial curve, poor fit].
In the case of `O=C(NCc1ccco1)c1ccc2c(=O)n(CC3CCCO3)c(=S)[nH]c2c1` (stereo unspecified), the Potency is reported as inconclusive: 10 µM [inhibitor, partial curve, poor fit].
For `C=COCCN1C=C(C(=O)OCC)C(c2ccccc2)NC1=O` (stereo unspecified), the Potency was inconclusive: 0.0335 µM [activator, full curve, poor fit].
In the case of `O=C(c1cc2ccccc2cc1O)N1CCN(c2ccccn2)CC1`, the Potency is reported as “inactive”.
With `O=C(CN1CCN(c2cccc(C(F)(F)F)c2)CC1)NCc1ccccc1` the Potency was “inactive”.
For `O=C(CCN1CCN(Cc2ccccc2)CC1)Nc1cccc(Cl)c1`, the Potency was inconclusive: 18.3 µM [inhibitor, single point].
For `CCCN(CC1CC1)c1nc(C)nc(Nc2c(Cl)cc(Cl)cc2Cl)c1Cl`, the Potency was inconclusive: 13 µM [inhibitor, partial curve, poor fit] and inconclusive: 3.98 µM [inhibitor, partial curve].
With `CC1(CCc2ccc3c(c2)OCO3)NC(=O)c2ccccc2N1` (stereo unspecified) the Potency was “inactive”.
For `CCOC(=O)c1nc(N2CCN(C(=O)OCC)CC2)c2c3c(sc2n1)CCCC3`, the Potency was inconclusive: 29.1 µM [inhibitor, single point].
In the case of `CCOc1ccc(CCNC(=O)COC(=O)c2cc(=O)[nH]c3ccccc23)cc1OCC`, the Potency is reported as “inactive”.
For `C/C(CC1CC(COCC(C)C)OC1=O)=N\Nc1nc(-c2ccccc2)cs1` (stereo unspecified), the Potency was “inactive”.
In the case of `O=C(N/N=C/c1cnc(N2CCCCC2)s1)c1ccc(Cl)cc1`, the Potency is reported as inconclusive: 29.1 µM [inhibitor, partial curve, poor fit].
With `COCc1c(C(=O)OCC(=O)NCCN2C(=O)CSC2=O)oc2ccccc12` the Potency was inconclusive: 35.5 µM [activator, partial curve, poor fit].
For `COC(=O)c1cccc(F)c1C(=O)c1cccc2ccccc12`, the Potency was inconclusive: 35.5 µM [inhibitor, single point].
In the case of `FC(F)(F)c1cnc(NNC(=S)Nc2ccccc2Cl)c(Cl)c1`, the Potency is reported as inconclusive: 14.1 µM [inhibitor, single point].
For `CCCCc1ccc(C(=O)Nc2ccc3nc(N(CC)CC)cc(C)c3c2)cc1`, the Potency was inconclusive: 8.91 µM [inhibitor, partial curve, poor fit].
For `O=C(Nc1ccc(-c2cn3c(n2)SCC3)cc1)c1ccc2ccccc2n1`, the Potency was inconclusive: 35.5 µM [inhibitor, single point].
In the case of `COC(=O)[C@@H](O)CC[C@@H](C)Cc1c(OC)c(OC)c(C)c(OC)c1OC`, the Potency is reported as “inactive”.
In the case of `C=CCN1C=C/C(=C\C=C(C#N)C#N)c2ccccc21`, the Potency is reported as “inactive”.
For `CCCCN1C[C@H](c2ccc(Br)cc2)[C@@H](CC(=O)Nc2ccc(Br)cc2)C1=O`, the Potency was inconclusive: 28.1 µM [inhibitor, partial curve, poor fit].
In the case of `Clc1ccc2c(c1)C(c1cccs1)=NNC(c1cccnc1)=N2`, the Potency is reported as “inactive”.
For `Cc1cccc(N2CCN(C(=O)NC(C)c3ccc(F)c(F)c3)CC2)c1C` (stereo unspecified), the Potency was inconclusive: 29.1 µM [inhibitor, single point].
In the case of `CN(C)c1ccnc(Oc2ccc(F)cc2)c1C#N`, the Potency is reported as inconclusive: 13 µM [activator, partial curve, poor fit].
For `CN(C)S(=O)(=O)N(CCN1CCOCC1)Cc1ccccc1F`, the Potency was inconclusive: 20 µM [activator, partial curve, poor fit].
In the case of `COc1cc(OC)c(NC(=O)C2=C(C)C(=O)OC23CCCCC3)cc1Cl`, the Potency is reported as “inactive”.
With `O=c1c(-c2ccc(Cl)cc2)[n+]([O-])c2ccccc2n1OCc1nc2ccccc2[nH]1` the Potency was inconclusive: 3.55 µM [activator, single point].
With `Cc1ccc(-c2nnn(CC(=O)Nc3ccccc3-c3ccccc3)n2)c(-n2cnnn2)c1` the Potency was inconclusive: 25.1 µM [inhibitor, single point].
With `O=c1[nH]c(=O)c2nc3c4ccccc4c4ccccc4c3nc2[nH]1` the Potency was inconclusive: 3.55 µM [inhibitor, single point].
With `CCCNC(=O)c1ccccc1NS(=O)(=O)c1ccc(OC)c(OC)c1` the Potency was inconclusive: 20.6 µM [activator, single point].
With `Cc1ccccc1CN(C)CC(=O)Nc1ccccc1Oc1ccccc1` the Potency was inconclusive: 10 µM [inhibitor, partial curve].
With `CCCOc1ccc(-c2nnc(N)s2)cc1` the Potency was inconclusive: 25.1 µM [inhibitor, single point].
With `Cc1ccc(N/C=C(/C#N)c2ccsc2)cc1C` the Potency was inconclusive: 22.4 µM [inhibitor, single point].
With `Nc1c(NC2CCCCC2)c2ccccc2oc1=O` the Potency was inconclusive: 6.51 µM [inhibitor, single point].
In the case of `O=[N+]([O-])c1ccc(C2CCCC/C2=N\OCc2cccc(F)c2)c([N+](=O)[O-])c1` (stereo unspecified), the Potency is reported as inconclusive: 35.5 µM [inhibitor, single point].
For `CCOC(=O)C1CCCN(C(=O)c2cccc(S(=O)(=O)N(Cc3ccccc3)c3ccccc3OC)c2)C1` (stereo unspecified), the Potency was “inactive”.
In the case of `CCN(CC)CCn1c2c(c(SCC(=O)Nc3cccc4ccccc34)nc1=O)CCC2`, the Potency is reported as inconclusive: 10 µM [inhibitor, partial curve].
With `CC(C(=O)Nc1ccccc1-c1ccccc1)N1CCN(Cc2ccccc2)CC1` (stereo unspecified) the Potency was inconclusive: 35.5 µM [inhibitor, single point].
For `CCC(C)C(NC(=O)c1ccc(Cl)cc1)C(=O)Nc1cccnc1` (stereo unspecified), the Potency was inconclusive: 12.6 µM [activator, partial curve].
For `Cc1c(C(=O)N/N=C/c2ccc(-c3ccccc3[N+](=O)[O-])o2)sc(N)c1C#N`, the Potency was “inactive”.
For `Cc1nnc(SCCn2c(N3CCN(C)CC3)nc3c2c(=O)[nH]c(=O)n3C)s1`, the Potency was “inactive”.
In the case of `Cn1c(=O)c(C(=O)CN2CCN(S(=O)(=O)c3ccccc3)CC2)c(N)n(Cc2ccccc2)c1=O`, the Potency is reported as inconclusive: 0.562 µM [activator, full curve, poor fit].
For `CC(C(=O)NCCS(=O)(=O)c1ccc(Br)cc1)S(=O)(=O)c1ccc(Cl)cc1` (stereo unspecified), the Potency was inconclusive: 11.2 µM [inhibitor, partial curve, poor fit].
With `COc1ccc(-c2cn3ccccc3n2)cc1OC` the Potency was inconclusive: 25.9 µM [inhibitor, single point].
In the case of `CN(CCCC(=O)Nc1ccc(OC(F)F)cc1)S(=O)(=O)c1ccc(F)cc1`, the Potency is reported as “inactive”.
In the case of `O=C(NCCSc1c(-c2ccc(F)cc2)[nH]c2ccccc12)c1ccc(S(=O)(=O)N2CCOCC2)cc1`, the Potency is reported as inconclusive: 35.5 µM [inhibitor, single point].
With `COc1cc(C)ccc1Oc1nc(-c2ccccc2O)nc2ccccc12` the Potency was “inactive”.
With `O=C(NCCc1ccccc1)C(=O)NCC1CCCN1S(=O)(=O)c1cccs1` (stereo unspecified) the Potency was inconclusive: 0.631 µM [inhibitor, full curve, poor fit].
For `CCOc1ccc(C(C)=O)cc1COC(=O)c1cc([N+](=O)[O-])ccc1N1CCOCC1`, the Potency was inconclusive: 35.5 µM [inhibitor, single point].
With `Cc1c(C(=O)Nc2nonc2-c2ccc(F)cc2)oc2ccc(F)cc12` the Potency was inconclusive: 12.6 µM [inhibitor, partial curve, poor fit].
In the case of `C=CCOc1ccc(/C=C2\SC(=S)N(C(C(=O)O)c3ccccc3)C2=O)cc1` (stereo unspecified), the Potency is reported as inconclusive: 6.31 µM [inhibitor, single point].
For `O=C(N/C(=C\c1ccc([N+](=O)[O-])cc1)C(=O)N1CCOCC1)c1ccco1`, the Potency was “inactive”.
